Measurements as given in publication PMC11997035.

By UniProt entry, the sequences of proteins in these tests, tags left out. Residues count along the entry.
UniProt Q15836: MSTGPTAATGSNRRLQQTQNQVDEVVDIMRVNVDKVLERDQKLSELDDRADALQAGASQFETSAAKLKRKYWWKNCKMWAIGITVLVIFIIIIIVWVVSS
UniProt P61006: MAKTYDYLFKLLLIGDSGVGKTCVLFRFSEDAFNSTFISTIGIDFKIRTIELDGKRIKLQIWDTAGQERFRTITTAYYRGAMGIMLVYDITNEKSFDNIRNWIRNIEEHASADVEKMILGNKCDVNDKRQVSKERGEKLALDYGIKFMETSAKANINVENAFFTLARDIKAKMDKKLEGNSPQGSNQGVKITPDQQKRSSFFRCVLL
UniProt P04439, residues 25-365: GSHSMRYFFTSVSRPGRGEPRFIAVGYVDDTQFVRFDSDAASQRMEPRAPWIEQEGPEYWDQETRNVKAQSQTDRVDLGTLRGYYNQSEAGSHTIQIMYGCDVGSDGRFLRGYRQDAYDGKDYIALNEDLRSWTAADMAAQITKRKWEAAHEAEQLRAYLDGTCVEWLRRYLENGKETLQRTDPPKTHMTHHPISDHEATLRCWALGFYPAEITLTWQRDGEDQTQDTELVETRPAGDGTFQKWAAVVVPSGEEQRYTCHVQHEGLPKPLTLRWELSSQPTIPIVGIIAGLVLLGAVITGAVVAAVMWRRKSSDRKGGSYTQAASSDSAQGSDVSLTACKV

Key:
[1] = target: T1, CD73 (bait for binding partners in TNBC cells) (human) (UniProt P21589); assay: affinity purification with mass spectrometry; mass spectrometry of CD73 binding partners in TNBC cells
T1 sequence: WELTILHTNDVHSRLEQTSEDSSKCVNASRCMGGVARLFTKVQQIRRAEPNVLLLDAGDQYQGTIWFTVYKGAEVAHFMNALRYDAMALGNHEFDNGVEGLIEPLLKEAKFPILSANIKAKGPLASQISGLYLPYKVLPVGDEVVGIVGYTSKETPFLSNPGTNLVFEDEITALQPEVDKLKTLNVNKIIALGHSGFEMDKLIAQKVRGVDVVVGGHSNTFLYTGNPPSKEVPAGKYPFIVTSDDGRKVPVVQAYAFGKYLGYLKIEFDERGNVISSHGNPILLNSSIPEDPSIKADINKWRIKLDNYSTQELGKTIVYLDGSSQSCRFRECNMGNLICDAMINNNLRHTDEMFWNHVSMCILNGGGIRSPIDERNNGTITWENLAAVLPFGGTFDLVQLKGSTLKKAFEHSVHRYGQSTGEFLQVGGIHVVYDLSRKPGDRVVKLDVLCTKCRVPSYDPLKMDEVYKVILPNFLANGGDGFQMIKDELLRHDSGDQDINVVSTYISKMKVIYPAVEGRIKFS

[2] = target: T2, Flag-HA-tagged hMGAT1 (human) (UniProt P26572); assay: affinity purification with mass spectrometry; Flag/HA-MGAT1 from MDA-MB468 lysate (1% NP-40 buffer) on Flag-M2 beads, washed with TBST, eluted with 3 × Flag peptide; WT MDA-MB468 as control
T2 sequence: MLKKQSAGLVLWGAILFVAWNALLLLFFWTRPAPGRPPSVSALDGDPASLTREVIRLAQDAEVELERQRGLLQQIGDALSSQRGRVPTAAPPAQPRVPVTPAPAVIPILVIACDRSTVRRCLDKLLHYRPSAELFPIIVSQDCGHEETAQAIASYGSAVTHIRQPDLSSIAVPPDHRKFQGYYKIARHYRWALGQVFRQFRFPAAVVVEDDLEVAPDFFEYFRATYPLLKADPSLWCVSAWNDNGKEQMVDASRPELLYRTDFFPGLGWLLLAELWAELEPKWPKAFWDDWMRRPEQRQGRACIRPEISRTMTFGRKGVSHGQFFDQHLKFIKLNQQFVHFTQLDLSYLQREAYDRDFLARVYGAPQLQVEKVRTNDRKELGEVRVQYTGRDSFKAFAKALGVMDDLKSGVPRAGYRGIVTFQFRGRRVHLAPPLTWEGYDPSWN

- binding [1]: binds
Molecule: VAMP3 (from UniProt Q15836 1-100)

- binding [1]: binds
Molecule: RAB8A (from UniProt P61006 1-207)

- binding [2]: binds
Molecule: HLA-A (from UniProt P04439 25-365)

- binding [2]: binds
Molecule: HLA-B (from UniProt P01889 25-362)

- binding [1]: binds
B1: RAB13 (protein, UniProt P51153 1-203)
chain: MAKAYDHLFKLLLIGDSGVGKTCLIIRFAEDNFNNTYISTIGIDFKIRTVDIEGKKIKLQVWDTAGQERFKTITTAYYRGAMGIILVYDITDEKSFENIQNWMKSIKENASAGVERLLLGNKCDMEAKRKVQKEQADKLAREHGIRFFETSAKSSMNVDEAFSSLARDILLKSGGRRSGNGNKPPSTDLKTCDKKNTNKCSLG

No constants are given. Whether binding was seen depends on the method and setting. In cells and extracts the contact can be indirect. A yes stands for co-enrichment or nearness to the bait. Other partners may have been found. For some assays here: Sequences can lack the tags named with a protein. One block for each molecule: values may come before it.
